Measurements published in patent US6509344B1, “Indenoisoquinolines as antineoplastic agents” (The United States of America as represented by the …, priority 1998, dated 2003).
Entries after “also recorded” stand apart in the source; their conditions may differ. At least one structure is not confirmed: it was looked up by name or label, or the drawing left a doubt.

Legend:
Format in all cases: biochemical
topoisomerase I = biological target: T1, topoisomerase I (Homo sapiens, UniProt P11387); experiment: Topoisomerase I-mediated DNA cleavage assay (3'-end-labeled 161 bp pBluescript SK(-) fragment)
T1 sequence (P11387 1-765): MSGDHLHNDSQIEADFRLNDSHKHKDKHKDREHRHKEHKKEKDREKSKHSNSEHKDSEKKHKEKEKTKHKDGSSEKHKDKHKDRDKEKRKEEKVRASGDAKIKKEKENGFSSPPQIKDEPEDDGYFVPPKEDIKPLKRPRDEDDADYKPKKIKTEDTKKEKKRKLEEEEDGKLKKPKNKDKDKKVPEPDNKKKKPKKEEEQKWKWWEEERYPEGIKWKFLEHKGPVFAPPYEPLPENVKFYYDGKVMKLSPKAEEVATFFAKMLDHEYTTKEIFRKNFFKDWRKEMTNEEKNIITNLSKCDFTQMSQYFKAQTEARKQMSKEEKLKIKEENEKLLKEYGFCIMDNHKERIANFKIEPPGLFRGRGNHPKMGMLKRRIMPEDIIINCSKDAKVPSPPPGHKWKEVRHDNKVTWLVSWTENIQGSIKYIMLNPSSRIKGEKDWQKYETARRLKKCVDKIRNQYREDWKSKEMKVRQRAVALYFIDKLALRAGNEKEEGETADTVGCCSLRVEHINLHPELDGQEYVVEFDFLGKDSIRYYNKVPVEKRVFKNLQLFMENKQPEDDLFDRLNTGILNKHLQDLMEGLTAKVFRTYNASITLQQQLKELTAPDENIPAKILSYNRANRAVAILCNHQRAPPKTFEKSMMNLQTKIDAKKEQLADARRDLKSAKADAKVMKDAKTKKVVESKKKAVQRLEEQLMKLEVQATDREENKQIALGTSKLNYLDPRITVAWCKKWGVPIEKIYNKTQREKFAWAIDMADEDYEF
Protocol: Topoisomerase I-Mediated DNA Cleavage Reactions Using 3′-End-labeled 161 BP Plasmid DNA
The 161 bp fragment from pBluescript SK(−) phagemid DNA (Stratagene, La Jolla, Calif.) was cleaved with the restriction endonuclease Pvu II and Hind III (New England Biolabs, Beverly, Mass.) in supplied NE buffer 2 (10 μL reactions) for 1 h at 37° C., separated by electrophoresis in a 1% agarose gel made in 1×TBE buffer. The 161 bp fragment was eluted from the gel slice (centrilutor by Amicon) and concentrated in a centricon 50 centrifugal concentrator (Amicon, Beverly, Mass.). Approximately 200 ng of the fragment was 3′-end-labeled at the Hind III site by fill-in reaction with [alpha-^32P]-dCTP and 0.5 mM dATP, dGTP, and dTTP, in React 2 buffer (50 mM Tris-HCl, pH 8.0, […], 50 mM NaCl) with 0.5 units of DNA polymerase I (Klenow fragment). Labeling reactions were followed by phenol-chloroform extraction and ethanol precipitation. The resulting 161 bp 3′-endlabeled DNA fragment was resuspended in water. Aliquots (approximately 50,000 dpm/reaction) were incubated with topoisomerase I at 30° C. for 15 min in the presence of the indicated drug. Reactions were terminated by adding 0.5% SDS. […]

human topoisomerase II = experiment: Topoisomerase II-mediated DNA cleavage assay (5'-end-labeled human c-myc DNA)
[1] = biological target: T2, topoisomerase I cleavage complexes (Homo sapiens, UniProt P11387); experiment: Salt reversal of topoisomerase I cleavage complexes; conditions: increasing salt concentration
T2 sequence (P11387 1-765): T1 sequence (P11387 1-765)

## CC[n+]1cc2cc(OC)c(OC)cc2c2c1-c1cc3c(cc1C2)OCO3 [Compound 27, 6-Ethyl-2,3-dimethoxy-8,9-(methylenedioxy)-11H-indeno[1,2-c]isoquinolinium Chloride]
Topoisomerase I
  activity in the topoisomerase I cleavage assay (in words): comparable to 1; also recorded: rival the topoisomerase activity of 1
Human topoisomerase II
  topoisomerase II activity at 100 μM: only marginal topoisomerase II activity
[1]
  reversal of induced cleavage sites by salt treatment: reversed by salt treatment
